Reference: the supplement of paper PMC5949888
Most values lie at the floor of the assay. Slopes are relative: functional sequences can read slightly below zero.

test system: Saccharomyces cerevisiae PS128 hsf1 delta, HSF1(1-493) fusion; assay: growth estimate (transactivation domain function in HSF1 fusion, heat-shock survival) (a.u. (slope of normalised read count over time)); higher = stronger growth at 37°C, i.e. more transactivation activity; settings: library: random library
Experimental: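 Random 60-nt DNA library encoding peptides of up to 20 aa, fused to the C-terminus of yeast HSF1 residues 1-493 (C-terminal TAD deleted) and expressed from the native HSF1 promoter on a CEN plasmid in hsf1-deleted S. cerevisiae PS128. Cells were selected at 37°C on -trp 5-FOA plates for 0, 2, 4, 6 and 8 days and amplicons were sequenced. Growth estimate is the slope of a robust linear fit of total-sum-normalised read counts (normalised to the first time point) over time, using at least 2 replicates. Sequences are classed functional (TAD activity) above a threshold of -0.13, set from stop-codon control sequences.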

Substance | growth estimate
FPYLAVVGYNNLARNQLPLR | < -0.25
IPGSPMIRKVGNIDPRFVTH | < -0.25
HQLSGSGVA | < -0.25
PMSAR | -0.231
YTGASCDDEVTVTGYGHFQK | < -0.25
HTR | < -0.25
HRGRKAPNEATIQCRRRVQT | < -0.25
YPLTVW | < -0.25
HFLS | < -0.25
TLLRMYTCEFFAAATRG | < -0.25
ATFFKTRGQYSVGSVGHAEV | -0.231
PRSIEDGAASAPPPRTESQW | < -0.25
QLEVDNASVHLLGRPFNTAV | < -0.25
FCGHIPHLIIDVHPETGSRA | < -0.25
GWTSTRLLGPPND | < -0.25
TVLARRD | < -0.25
LGTVHEIDV | < -0.25
AAVDYVVGTGPSLNDPVTVK | < -0.25
TCLVFLYIRERVSRVR | < -0.25
ILVTYRLSNRR | < -0.25
RRSKQTITIVVRNWNFLLNV | < -0.25
ACVPRHDPRYSRTHLIRWST | < -0.25
LEVQRALRAIIQKRLLGSRV | < -0.25
SIW | < -0.25
CTPTVRKPRPNCQVGLSIPR | < -0.25

Substance | growth estimate
SCGRTQGRSHLL | < -0.25
LCESFRINGRGLHP | < -0.25
ATSEGL | < -0.25
LARGGTACDDTVPKRHVSTG | < -0.25
LLLARRAERSTCIRQIAPAN | < -0.25
SCEETRL | < -0.25
QSARSTPVPARDECKQVFQN | < -0.25
TPPS | < -0.25
VYRISVEPTNCRQEEIITVQ | < -0.25
YDCVTGSRKLPRTVWISLCP | < -0.25
PDLV | < -0.25
CGVRYRQ | < -0.25
TTAATAGARIPSA | < -0.25
SRSRGLQAPMLGCMKDRFTS | < -0.25
QTIYKGSISNRQLAPFPASD | < -0.25
YDPG | < -0.25
KKRQELRHTGCILVMGDPLQ | < -0.25
PELGSEAFVRLLATNREFSG | < -0.25
PINDQEYNLSQLDDFAHKPI | < -0.25
ERDP | < -0.25
RIALTSGRGRFAEVGLRIWS | < -0.25
EGLSRESTILRVQVQIVPWV | < -0.25
LIWARDQPVRNHFEPVHHEE | < -0.25
QTEHFQVR | < -0.25
ASPI | < -0.25

Substance | growth estimate
TGEGAT | < -0.25
RDRTLSSSGRLYIVIRDRGA | < -0.25
KNLKLSCRLGMAVKR | < -0.25
KLSGRVCTPER | < -0.25
HQDKYRPVIGQRLDDELSKR | < -0.25
ESNEVFQQRCYRWELLVLTI | < -0.25
RPRPNSLGLGARSPGFDPGL | < -0.25
VNPDAAPRKNRI | < -0.25
SIEKTSRIPDVAKQSLSFLD | < -0.25
WKVRINRPHVRAESCMRPPR | < -0.25
IHCKVVFTLALYVRD | < -0.25
AAFQ | < -0.25
PCRNAYR | < -0.25
DLFVGALIDGYEPVQDE | -0.174
YEWMVPWTSQTGSTAT | < -0.25
ESSGGTGTKFSRHTVSVT | < -0.25
SRASCRE | < -0.25
GLTRE | < -0.25
HISRNLPVKGTV | < -0.25
PCGT | < -0.25
SNRRTLISYRSPRVRPGCLT | -0.0802
PHNLVRRQ | < -0.25
SFPPVRGG | < -0.25
SLNPFMQREQDWGVPQAGHL | < -0.25
REKFSPVRFLGPGSLSRTAG | < -0.25

Five entries from above, in markdown:

| Substance | growth estimate |
| --- | --- |
| ESNEVFQQRCYRWELLVLTI | < -0.25 |
| RPRPNSLGLGARSPGFDPGL | < -0.25 |
| VNPDAAPRKNRI | < -0.25 |
| SIEKTSRIPDVAKQSLSFLD | < -0.25 |
| WKVRINRPHVRAESCMRPPR | < -0.25 |

Continued.

Substance | growth estimate
VRLARLSYGTGCIHYSCLCC | < -0.25
RGVFYGEGNQKCIRRARS | < -0.25
LTN | < -0.25
RTQRRGWCLRGLIQINSCTL | < -0.25
FLPAHGPGWGMLMLQGYRPH | < -0.25
LGIHNGSWYAGRSSLKTVA | < -0.25
DDTHLGEIGRTPSVH | < -0.25
RFRTCRHVRPFKMFRLLQVW | < -0.25
NVPAPVSSVRFPACLFETGS | < -0.25
EGTDVDLGGRGRRPLRV | < -0.25
AGKLPRFGSSPWCFYEQADT | < -0.25
SDDGCSSVFQCHSFCRTWRV | < -0.25
VHYILTLDRTV | < -0.25
RLGSQTAWACWTGW | -0.205
PCIYRHGSRCVSRRATAPVS | < -0.25
HVLLAGPPADTVERKTE | < -0.25
YADSRSPEAT | < -0.25
FRHGLP | < -0.25
PSRPRKFIRELTALVKYNPI | < -0.25
FMSV | < -0.25
IHD | -0.245
KYVKFHDGIASNTDRIRLC | < -0.25
